# In paper PMC8744257:
# Protein sequences, listed by entry. Tags and fused reporters are not part of them. Residues count along the entry.
# UniProt P38646, residues 47-679: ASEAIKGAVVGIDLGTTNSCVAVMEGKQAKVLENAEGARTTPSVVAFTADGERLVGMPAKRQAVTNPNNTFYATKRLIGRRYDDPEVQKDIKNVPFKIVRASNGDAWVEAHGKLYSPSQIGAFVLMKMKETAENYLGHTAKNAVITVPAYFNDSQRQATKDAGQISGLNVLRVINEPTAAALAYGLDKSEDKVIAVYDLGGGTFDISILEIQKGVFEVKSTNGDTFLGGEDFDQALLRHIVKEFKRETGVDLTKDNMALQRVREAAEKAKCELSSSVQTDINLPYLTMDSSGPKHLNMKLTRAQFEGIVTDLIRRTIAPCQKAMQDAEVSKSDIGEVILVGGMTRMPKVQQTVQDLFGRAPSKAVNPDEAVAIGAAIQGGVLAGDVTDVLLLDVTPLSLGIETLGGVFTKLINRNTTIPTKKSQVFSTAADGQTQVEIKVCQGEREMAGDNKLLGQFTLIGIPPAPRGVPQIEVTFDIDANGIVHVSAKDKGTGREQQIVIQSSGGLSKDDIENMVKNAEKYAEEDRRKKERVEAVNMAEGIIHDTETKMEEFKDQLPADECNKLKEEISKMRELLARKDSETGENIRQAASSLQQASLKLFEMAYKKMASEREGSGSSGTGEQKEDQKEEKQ
# UniProt Q96R06: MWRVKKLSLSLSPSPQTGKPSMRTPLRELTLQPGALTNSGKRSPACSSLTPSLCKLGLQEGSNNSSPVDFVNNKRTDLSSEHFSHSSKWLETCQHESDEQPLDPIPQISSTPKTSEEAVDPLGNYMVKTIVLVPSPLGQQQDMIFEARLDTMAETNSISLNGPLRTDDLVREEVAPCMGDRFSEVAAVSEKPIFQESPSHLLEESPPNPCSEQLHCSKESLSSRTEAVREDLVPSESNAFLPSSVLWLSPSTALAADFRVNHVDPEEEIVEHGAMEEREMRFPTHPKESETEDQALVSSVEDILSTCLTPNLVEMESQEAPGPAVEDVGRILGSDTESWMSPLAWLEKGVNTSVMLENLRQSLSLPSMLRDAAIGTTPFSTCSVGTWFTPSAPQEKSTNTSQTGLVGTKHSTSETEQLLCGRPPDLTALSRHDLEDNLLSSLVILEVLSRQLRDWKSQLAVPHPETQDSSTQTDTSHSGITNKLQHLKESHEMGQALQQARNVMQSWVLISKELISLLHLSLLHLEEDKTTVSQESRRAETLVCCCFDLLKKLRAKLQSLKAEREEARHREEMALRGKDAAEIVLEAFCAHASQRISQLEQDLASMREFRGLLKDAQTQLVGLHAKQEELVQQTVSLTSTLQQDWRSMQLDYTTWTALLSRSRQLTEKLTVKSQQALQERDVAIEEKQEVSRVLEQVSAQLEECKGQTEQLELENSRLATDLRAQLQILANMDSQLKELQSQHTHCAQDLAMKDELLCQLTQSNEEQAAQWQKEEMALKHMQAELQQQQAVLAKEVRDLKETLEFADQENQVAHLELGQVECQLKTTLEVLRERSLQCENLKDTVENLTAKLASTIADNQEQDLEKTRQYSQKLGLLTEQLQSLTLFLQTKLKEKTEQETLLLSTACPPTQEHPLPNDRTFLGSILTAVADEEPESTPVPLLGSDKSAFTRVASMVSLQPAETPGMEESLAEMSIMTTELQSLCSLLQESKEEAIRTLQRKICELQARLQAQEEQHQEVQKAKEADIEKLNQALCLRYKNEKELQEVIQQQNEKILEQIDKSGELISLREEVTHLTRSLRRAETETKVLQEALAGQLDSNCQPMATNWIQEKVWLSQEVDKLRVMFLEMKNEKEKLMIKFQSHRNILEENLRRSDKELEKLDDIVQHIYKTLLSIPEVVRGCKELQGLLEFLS
# Results are given in words; binding and its absence hold for the method and conditions named. Binding seen in cells or lysates may run through a third protein. These calls come from enrichment with a bait or labelling near it, and not all partners need be listed. For some of these results: A no says only that the protein was not detected with the bait. For some of these results: Where a sequence is shown, tags or fusion partners need not be part of it.
# Legend:
# [1] = biological target: T1, BioID2-tagged wildtype human CLUH (BioID2-3xHA-CLUH) (human) (UniProt O75153); experiment: proximity labelling; BioID in HCT116 CLUH KO cells stably expressing BioID2-3xHA-CLUH, BioID2-3xHA-CLUH∆TPR or BioID2-3xHA-GFP; 24 h, 50 μM biotin; streptavidin pull-down, western blot (Fig. 5B)
# T1 sequence: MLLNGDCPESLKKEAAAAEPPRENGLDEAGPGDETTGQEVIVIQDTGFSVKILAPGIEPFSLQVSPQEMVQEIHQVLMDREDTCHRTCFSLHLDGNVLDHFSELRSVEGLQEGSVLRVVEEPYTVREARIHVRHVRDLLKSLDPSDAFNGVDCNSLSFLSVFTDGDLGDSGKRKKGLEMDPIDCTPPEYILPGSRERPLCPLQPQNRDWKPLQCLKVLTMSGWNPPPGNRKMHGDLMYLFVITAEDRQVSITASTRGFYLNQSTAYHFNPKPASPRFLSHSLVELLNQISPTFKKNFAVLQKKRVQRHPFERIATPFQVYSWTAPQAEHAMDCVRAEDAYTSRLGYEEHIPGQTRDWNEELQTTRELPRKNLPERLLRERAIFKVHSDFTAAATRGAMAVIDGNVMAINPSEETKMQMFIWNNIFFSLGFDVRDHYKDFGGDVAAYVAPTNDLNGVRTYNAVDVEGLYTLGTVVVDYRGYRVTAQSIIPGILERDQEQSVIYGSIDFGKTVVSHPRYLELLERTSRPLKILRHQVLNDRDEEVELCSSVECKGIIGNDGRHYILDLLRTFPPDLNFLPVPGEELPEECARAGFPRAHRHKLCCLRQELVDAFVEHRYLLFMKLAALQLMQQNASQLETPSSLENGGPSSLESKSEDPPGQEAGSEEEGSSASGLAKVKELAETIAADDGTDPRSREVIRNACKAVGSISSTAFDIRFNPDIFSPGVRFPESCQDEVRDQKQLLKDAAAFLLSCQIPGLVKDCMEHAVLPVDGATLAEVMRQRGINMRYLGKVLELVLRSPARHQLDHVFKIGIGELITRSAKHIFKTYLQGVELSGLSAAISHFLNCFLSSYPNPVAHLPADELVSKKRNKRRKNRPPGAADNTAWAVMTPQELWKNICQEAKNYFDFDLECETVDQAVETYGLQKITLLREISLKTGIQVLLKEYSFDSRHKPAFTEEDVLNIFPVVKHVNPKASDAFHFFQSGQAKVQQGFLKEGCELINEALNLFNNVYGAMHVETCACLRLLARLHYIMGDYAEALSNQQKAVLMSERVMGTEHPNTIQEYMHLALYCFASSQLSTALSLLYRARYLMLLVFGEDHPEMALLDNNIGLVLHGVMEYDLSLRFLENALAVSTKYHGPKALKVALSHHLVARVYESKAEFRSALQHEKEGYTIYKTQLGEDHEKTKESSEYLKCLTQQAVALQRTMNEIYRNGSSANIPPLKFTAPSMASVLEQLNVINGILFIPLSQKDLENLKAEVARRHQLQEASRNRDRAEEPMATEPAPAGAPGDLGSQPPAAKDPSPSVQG
# [2] = biological target: T2, CLUH lacking TPR domain (BioID2-3xHA-CLUH∆TPR) (human) (UniProt O75153); experiment: as above
# T2 sequence: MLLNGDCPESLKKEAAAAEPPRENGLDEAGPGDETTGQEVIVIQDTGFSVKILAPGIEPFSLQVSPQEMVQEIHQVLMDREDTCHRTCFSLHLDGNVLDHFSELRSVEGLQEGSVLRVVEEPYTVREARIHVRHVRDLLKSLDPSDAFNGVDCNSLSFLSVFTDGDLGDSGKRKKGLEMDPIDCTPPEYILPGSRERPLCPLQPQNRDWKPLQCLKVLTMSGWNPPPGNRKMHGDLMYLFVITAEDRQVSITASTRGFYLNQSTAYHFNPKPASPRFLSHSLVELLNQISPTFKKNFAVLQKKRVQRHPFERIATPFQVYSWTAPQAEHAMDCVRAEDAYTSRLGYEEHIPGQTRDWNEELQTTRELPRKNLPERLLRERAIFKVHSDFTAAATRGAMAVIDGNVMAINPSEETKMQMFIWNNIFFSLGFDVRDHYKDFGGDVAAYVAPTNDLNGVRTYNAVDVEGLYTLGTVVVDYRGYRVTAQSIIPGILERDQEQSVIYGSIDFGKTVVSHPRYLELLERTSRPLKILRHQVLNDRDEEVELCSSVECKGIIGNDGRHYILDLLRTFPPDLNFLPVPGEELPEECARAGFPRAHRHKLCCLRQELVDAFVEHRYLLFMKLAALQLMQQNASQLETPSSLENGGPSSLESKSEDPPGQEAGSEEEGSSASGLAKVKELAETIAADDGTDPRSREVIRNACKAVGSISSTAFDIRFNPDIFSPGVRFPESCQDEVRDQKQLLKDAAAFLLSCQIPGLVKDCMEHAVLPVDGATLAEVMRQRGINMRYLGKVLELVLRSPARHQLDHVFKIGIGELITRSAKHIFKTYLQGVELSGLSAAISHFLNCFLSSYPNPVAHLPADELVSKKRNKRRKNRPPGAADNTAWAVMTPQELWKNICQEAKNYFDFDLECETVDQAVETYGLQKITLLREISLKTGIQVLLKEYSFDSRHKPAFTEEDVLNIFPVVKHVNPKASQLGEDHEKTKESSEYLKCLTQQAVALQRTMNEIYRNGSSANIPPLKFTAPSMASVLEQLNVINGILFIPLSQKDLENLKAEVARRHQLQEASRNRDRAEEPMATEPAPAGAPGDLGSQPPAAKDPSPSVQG
# [3] = biological target: T3, human CLUH fused to TurboID in N-terminal (TurboID-CLUH) (human) (UniProt O75153); experiment: proximity labelling; TurboID in HCT116 stably expressing TurboID-CLUH, control TurboID-GFP; 30 min and 16 h, 50 μM biotin; streptavidin beads; LC-MS/MS
# T3 sequence: T1 sequence
# [4] = biological target: T4, mouse CLUH (mCLUH) protein fused, in N-terminal, to a modified biotin ligase protein (BioID2-CLUH) (mouse) (UniProt Q5SW19); experiment: proximity labelling; BioID in HCT116 stably expressing BioID2-mCLUH, control GFP-BioID2; 24 h, 50 μM biotin; streptavidin beads; LC-MS/MS, three replicates
# T4 sequence: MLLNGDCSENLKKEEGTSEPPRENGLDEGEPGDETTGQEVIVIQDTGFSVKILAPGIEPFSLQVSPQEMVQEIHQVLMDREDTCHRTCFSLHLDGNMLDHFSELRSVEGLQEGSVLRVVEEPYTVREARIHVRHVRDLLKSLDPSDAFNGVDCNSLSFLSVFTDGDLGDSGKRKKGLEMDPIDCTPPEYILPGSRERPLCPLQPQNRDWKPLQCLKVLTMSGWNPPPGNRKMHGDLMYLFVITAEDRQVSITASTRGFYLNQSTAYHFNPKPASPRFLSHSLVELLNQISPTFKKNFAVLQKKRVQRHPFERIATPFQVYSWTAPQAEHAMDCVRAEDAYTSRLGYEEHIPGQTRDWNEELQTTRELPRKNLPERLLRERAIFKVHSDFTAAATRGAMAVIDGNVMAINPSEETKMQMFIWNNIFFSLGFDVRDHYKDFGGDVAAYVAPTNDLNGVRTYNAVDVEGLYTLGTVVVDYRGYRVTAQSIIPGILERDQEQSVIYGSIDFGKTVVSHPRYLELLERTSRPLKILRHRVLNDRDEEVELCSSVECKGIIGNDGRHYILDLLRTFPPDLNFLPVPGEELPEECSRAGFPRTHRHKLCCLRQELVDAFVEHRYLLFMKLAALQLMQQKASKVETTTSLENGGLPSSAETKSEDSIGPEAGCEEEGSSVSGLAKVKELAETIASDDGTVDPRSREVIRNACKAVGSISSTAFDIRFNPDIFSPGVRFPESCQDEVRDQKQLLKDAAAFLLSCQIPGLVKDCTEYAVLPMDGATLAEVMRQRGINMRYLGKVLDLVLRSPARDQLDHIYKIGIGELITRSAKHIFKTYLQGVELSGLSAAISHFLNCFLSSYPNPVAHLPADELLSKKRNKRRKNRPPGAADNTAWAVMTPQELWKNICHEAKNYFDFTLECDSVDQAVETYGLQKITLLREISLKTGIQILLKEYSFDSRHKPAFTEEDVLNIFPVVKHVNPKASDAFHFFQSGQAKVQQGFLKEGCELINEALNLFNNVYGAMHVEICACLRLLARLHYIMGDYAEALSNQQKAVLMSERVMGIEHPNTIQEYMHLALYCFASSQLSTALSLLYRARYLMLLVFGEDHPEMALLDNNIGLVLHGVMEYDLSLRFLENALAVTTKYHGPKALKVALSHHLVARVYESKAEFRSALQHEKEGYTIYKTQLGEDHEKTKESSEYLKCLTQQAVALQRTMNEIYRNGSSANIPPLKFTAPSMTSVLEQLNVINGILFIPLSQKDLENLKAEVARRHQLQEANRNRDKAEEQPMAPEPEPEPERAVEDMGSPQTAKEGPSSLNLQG
# [5] = biological target: T1, BioID2-tagged wildtype human CLUH (BioID2-3xHA-CLUH) (human); experiment: proximity labelling; BioID in wild-type HCT116 cells stably expressing BioID2-3xHA-CLUH, BioID2-3xHA-CLUH∆TPR or BioID2-3xHA-GFP; 24 h, 50 μM biotin; streptavidin pull-down, western blot (Fig. 5C)
# [6] = biological target: T5, mouse CLUH (mCLUH) protein tagged with a triple HA epitope (3xHA) (mouse) (UniProt Q5SW19); experiment: affinity purification with mass spectrometry; anti-HA-coupled beads on extracts of HCT116 stably expressing 3xHA-mCLUH; wild-type cells as IP mock; LC-MS/MS, three replicates, spectral counting, FC 2 and 10% FDR
# T5 sequence: T4 sequence
# [7] = biological target: T3, human CLUH fused to TurboID in N-terminal (TurboID-CLUH) (human); experiment: proximity labelling; TurboID in HCT116 stably expressing TurboID-CLUH; 30 min, 50 μM biotin; streptavidin pull-down, western blot (Fig. 6E); mock-treated cells (SPAG5: with or without puromycin); also after SPAG5 knock-down (Fig. S7G-I)
Substance,binding [1],binding [2],binding [3],binding [4],binding [5],binding [6],binding [7]
"HSPA9 (endogenous, HCT116) (from UniProt P38646 47-679)",binds,no binding,,,,,
"SPAG5 (endogenous, HCT116) (from UniProt Q96R06 1-1193)",,,binds,binds,binds,binds,binds
